According to patent US20230101335A1, “EX VIVO TISSUE EXPLANT AND GRAFT PLATFORM AND USES THEREOF” (Massachusetts Institute of Technology, priority 2021, published 2023):
Some entries share one result that the patent states for a list of compounds.

Test system: CRC organoids engrafted in swine small intestine tissue
Assay: ex vivo CRC organoid-in-intestine platform, GFP+ tumor cells by flow cytometry
Type: cell-based
Conditions: at high (1 mM) concentrations, drug alone

SMILES | CRC viability
CCCCCOC(=O)Nc1nc(=O)n([C@@H]2O[C@H](C)[C@@H](O)[C@H]2O)cc1F [capecitabine] | > 50%
Nc1nc2c(c(=O)[nH]1)N(C=O)C(CNc1ccc(C(=O)N[C@@H](CCC(=O)O)C(=O)O)cc1)CN2 (some centres unmarked) [leucovoroin, leucovorin] | > 50%
